{"source": "patent US9156809B2", "about": "“Carboxy ester ketals, methods of manufacture, and uses thereof” (SEGETIS, INC., priority 2012, dated 2015)", "test": "Relative VOC content / volatility by TGA emulating ASTM D2369", "details": "110° C., nitrogen purge", "description": "Here, 15 milligrams (mg) of each coalescent solvent was maintained at 110° C. for one hour with a nitrogen purge in a thermogravimetric analyzer (TGA).", "note": "Some of these results come from one statement about several compounds together."}
{"substance": "2,2,4-trimethyl-1,3-pentanediol monoisobutyrate [TPM]", "values": [{"measurement": "time to completely volatilize", "value": "less than 30 minutes"}]}
